Data taken from paper PMC8546589.

Chains of the proteins cited; added tags and fusions are not shown. Lines headed by an entry give the natural chain unless they say otherwise; changes in a name come on top.
UniProt C4LTS8: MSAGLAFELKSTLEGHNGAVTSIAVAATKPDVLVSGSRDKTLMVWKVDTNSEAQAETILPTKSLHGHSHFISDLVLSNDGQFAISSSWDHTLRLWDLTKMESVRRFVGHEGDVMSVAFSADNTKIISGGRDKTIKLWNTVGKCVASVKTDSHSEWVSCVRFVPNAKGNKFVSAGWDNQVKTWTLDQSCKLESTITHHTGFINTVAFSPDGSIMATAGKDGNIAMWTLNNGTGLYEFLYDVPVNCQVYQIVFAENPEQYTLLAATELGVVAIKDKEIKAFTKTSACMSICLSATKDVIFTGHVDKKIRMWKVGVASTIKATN

Legend:
[1] = molecular target: T1, Myc-EBP-1 (E. histolytica) (UniProt C4M5C4); assay: affinity purification with mass spectrometry; anti-c-Myc agarose IP from whole-cell lysate of E. histolytica lines overexpressing Myc-NAP07, Myc-NAP12, Myc-EBP-1, Myc-GNB2L1 or Myc-Tudor-like protein; LC-MS/MS in duplicate; hits in both replicates and exclusive against the Luc control
T1 sequence: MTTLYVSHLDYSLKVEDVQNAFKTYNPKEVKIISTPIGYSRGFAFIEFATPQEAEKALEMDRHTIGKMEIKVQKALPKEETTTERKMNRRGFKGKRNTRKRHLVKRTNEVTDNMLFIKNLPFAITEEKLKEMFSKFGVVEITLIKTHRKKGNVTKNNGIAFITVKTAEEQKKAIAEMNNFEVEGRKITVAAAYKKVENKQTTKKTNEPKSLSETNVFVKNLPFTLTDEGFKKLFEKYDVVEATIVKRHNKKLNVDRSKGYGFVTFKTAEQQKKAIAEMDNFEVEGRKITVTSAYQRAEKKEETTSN

[2] = molecular target: Myc-GNB2L1 (E. histolytica) (UniProt C4LTS8); assay: as above
[3] = molecular target: T2, Myc-NAP07 (E. histolytica) (UniProt C4M608); assay: as above
T2 sequence: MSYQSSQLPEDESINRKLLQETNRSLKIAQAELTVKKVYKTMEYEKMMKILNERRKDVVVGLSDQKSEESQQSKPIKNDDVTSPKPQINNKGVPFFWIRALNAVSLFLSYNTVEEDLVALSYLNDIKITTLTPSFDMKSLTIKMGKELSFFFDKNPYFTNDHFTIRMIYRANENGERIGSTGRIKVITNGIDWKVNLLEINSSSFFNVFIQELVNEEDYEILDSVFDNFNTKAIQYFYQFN

[4] = molecular target: T3, Myc-NAP12 (E. histolytica) (UniProt C4M8H9); assay: as above
T3 sequence: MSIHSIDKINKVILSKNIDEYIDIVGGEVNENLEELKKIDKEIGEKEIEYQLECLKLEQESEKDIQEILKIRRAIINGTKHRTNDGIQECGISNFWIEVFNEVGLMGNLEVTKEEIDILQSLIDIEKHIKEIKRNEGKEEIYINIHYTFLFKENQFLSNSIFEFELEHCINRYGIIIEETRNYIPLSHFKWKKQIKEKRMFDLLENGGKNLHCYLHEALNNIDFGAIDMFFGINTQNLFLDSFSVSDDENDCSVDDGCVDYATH

[5] = molecular target: T4, Myc-EhRdRP1 (E. histolytica) (UniProt C4M6W7); assay: affinity purification with mass spectrometry; anti-c-Myc agarose IP from whole-cell lysate of E. histolytica lines overexpressing the Myc-tagged bait (EhAgo2-2 WT, its two mutants, EhRdRP1, EhRdRP2), 2 h at 4°C, six low-stringency washes; LC-MS/MS in triplicate; nonribosomal hits in at least 2 of 3 data sets, exclusive or ≥3-fold enriched against the Luc control
T4 sequence: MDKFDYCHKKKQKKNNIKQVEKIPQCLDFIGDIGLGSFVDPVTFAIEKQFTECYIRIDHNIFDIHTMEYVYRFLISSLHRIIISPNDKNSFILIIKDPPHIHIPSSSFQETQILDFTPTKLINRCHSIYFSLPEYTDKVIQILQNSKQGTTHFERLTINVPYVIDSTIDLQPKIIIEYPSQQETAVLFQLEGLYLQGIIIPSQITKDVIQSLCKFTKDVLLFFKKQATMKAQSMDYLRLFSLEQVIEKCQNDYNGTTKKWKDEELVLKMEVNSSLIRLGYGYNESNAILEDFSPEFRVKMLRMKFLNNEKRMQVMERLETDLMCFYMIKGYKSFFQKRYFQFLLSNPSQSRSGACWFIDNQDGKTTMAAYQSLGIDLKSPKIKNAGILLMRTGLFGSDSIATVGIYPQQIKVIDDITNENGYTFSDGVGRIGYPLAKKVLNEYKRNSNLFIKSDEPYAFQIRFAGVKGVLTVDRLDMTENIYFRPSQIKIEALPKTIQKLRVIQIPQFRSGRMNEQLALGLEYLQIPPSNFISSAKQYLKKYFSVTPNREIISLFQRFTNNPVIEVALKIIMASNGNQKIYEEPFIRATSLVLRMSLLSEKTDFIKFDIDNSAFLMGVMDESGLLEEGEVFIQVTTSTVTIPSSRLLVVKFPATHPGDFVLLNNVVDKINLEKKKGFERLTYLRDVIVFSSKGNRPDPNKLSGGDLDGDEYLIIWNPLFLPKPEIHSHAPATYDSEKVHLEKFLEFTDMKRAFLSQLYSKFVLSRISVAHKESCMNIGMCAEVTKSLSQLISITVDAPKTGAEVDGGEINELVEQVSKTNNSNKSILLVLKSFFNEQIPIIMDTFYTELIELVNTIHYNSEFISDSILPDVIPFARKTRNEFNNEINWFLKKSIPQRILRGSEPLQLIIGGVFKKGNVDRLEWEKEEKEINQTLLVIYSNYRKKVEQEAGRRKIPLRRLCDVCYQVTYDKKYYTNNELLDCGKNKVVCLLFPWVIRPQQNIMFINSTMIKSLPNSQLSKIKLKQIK

[6] = molecular target: T5, Myc-EhRdRP2 (E. histolytica) (UniProt C4M631); assay: as above
T5 sequence: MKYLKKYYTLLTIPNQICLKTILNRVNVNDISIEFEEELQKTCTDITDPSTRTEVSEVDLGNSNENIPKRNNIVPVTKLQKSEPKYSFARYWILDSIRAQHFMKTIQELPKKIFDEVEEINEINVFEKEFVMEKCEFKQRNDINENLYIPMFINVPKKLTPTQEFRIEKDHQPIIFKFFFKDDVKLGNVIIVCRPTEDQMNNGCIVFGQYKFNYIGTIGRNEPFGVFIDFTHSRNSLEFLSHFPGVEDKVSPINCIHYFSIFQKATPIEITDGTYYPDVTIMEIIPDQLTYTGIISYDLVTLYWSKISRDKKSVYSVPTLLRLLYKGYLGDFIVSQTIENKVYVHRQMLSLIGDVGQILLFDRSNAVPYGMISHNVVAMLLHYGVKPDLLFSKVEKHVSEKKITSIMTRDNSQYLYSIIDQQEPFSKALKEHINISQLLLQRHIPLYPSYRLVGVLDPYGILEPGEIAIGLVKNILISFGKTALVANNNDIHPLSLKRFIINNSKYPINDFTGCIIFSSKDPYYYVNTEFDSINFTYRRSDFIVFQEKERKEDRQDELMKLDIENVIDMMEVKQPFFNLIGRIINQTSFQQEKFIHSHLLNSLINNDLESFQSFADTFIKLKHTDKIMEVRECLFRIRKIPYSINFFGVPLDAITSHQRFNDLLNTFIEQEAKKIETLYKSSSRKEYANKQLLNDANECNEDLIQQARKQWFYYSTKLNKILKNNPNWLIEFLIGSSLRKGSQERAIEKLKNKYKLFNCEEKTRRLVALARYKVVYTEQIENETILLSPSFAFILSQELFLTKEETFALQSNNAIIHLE

Measured: binding

B1: Tudor-like protein (endogenous) (protein, UniProt C4M0A8 1-861)
chain: MPAQNTQKKDLSKKVEKKPESEPKKEKKTFTAFVAKVKSNNSLTLSSKKDDKRSTVVLAYVDLPRYDAKEKKEEAFAYETNEILRKKLVTGKEVKFEVVSEHQGIPKAVVPFVRKENIVCTLIESGYASLKIKGKGKEFSQYFDAEQKAKDSHRGIFSEDMIKIAKKRPENIFFNEKEISELKGKTIQGHIKRVEAPSHYIIEDTNRRRFKVVLYGVNQMLRYNTEKDVFDFDDDAKDAMKYINRSFNQRDVTVKVIETSQRVAYAQLSVEKKDVAEELLRSGFVVCSKLENATEEIKQKYQAAEKEAKKEKKARWTEFDQAAEDAIIAKRQQRLKELEDRRKNAKIISGAEIIYIGNHIKAKKGNEEYNIHLASVRPVFKKNDKEFNDLVQFRIKECLRKLIVGKKFEAKECYKRSFTKEDKTIEEVFYDVYASGKNVAVTLIKEGLVVLEKTRDEFYQSFDYKLLSETPKGEYKEKVVTQYPAEKRESIKDVFLNNSFNCIVERVINVCKYVIYIPEKDCRMTVVLSHCRIPRDDENEELKKFNEESKAAVRALFGLNEVTVDFREFFKGNFCVDILSKKFDLCDLVLSKAYAQFSGRDIPENIAEMKENQEGIYKFAGAKKEGESKPVRPVKVVKEVHREIKFGEGKNVYITGFDGSMIYYYEKVADAKFIEELSNKLKKCNKGSVEQKDGQKCVVEIKGVQYRAIITKAVPTANVVKCIDTGAVIVCGKNKLKPLKEEYENIEVTVKSIALAGVKTLVRGKDVDFDAMINAVSSFFNKEATMFVATINDKEVAKVVVGDVCINNMLIEEGLSILDRFFNDNSDWGRAMTSAQSAAKDKHLNVWRYGEIDDDEEKDKH
binds: all assays above

These are yes or no findings as the source states them, for the method shown. In cells and extracts the contact can be indirect. A yes stands for co-enrichment or nearness to the bait. Other partners may have been found. For part of these data: Sequences can lack the tags named with a protein.
